Data taken from patent US8624027B2, “Combination therapy for treating cancer and diagnostic assays for use therein” (AbbVie Inc., priority 2005, dated 2014).

test: Pharmacokinetic evaluation in rat; assay type: in vivo; settings: Table 2
Protocol: The pharmacokinetic behavior of compounds of this disclosure was determined following a single 2 mg/kg intravenous or 5 mg/kg oral dose in male Sprague-Dawley derived rats (n=3 per group). The compounds were prepared as 2 mg/mL solution in a 10% DMSO in PEG-400 formulation for both oral and intravenous administration. The 1 mL/kg intravenous dose was administered as a slow bolus (about 1-2 minutes) in the jugular vein of a rat under light ether anesthetic. The oral dose was administered by gavage. Serial blood samples were obtained from a tail vein of each rat prior 0.1 (IV only), 0.25, 0.5, 1, 1.5, 2, 3, 4, 6, 8 and 24 hours after dosing. The heparinized samples were thoroughly mixed and placed in an ice bath. Plasma was separated by centrifugation and stored frozen prior to analysis.
The compounds of interest were separated from the plasma using protein precipitation with acetonitrile. A plasma (100-200 μL, sample or spiked standard) aliquot was combined with 50 μL of internal standard (structurally related analog prepared in acetonitrile) and 1 ml acetonitrile in a 96-well polypropylene deep well plate. The plates were vortexed for 30 seconds followed by centrifugation (3500 rpm×15 minutes, 4° C.). In an automated manner, the supernatant was transferred to a clean 96-well plate. The samples were evaporated to near dryness on a Micro-Vap™ under a stream of dry nitrogen over low heat (˜37° C.). The samples were reconstituted vortexing with 0.2 mL 5% DMSO in acetonitrile. A 0.1-0.2 ml aliquot of acetonitrile: 0.1% trifluoroacetic acid (20:80, by volume) was added to each well, followed by an additional 30 second vortexing. The plates were centrifuged (3500 rpm×15 minutes, 4° C.) prior to HPLC-MS/MS analysis. Samples were analyzed simultaneously with spiked plasma standards. All samples from each study were analyzed as a single batch on the LC-MS/MS.
The compounds of interest and the internal standard were separated from each other and co-extracted contaminants on a 50×3 mm Keystone Betasil CN 5 μm column with an acetonitrile: 0.1% trifluoroacetic acid mobile phase (50:50, by volume) at a flow rate of 0.7 ml/min. Analysis was performed on a Sciex API 300™ Biomolecular Mass Analyzer using a heated nebulizer interface. Peak areas of the title compounds and internal standards were determined using the Sciex MacQuan™ software. Calibration curves were derived from peak area ratio (parent drug/internal standard) of the spiked rat plasma standards using least squares linear regression of the ratio versus the theoretical concentration. The methods were generally linear over the range of the standard curve (correlation coefficients >0.99) with an estimated quantitation limit of 0.01 μg/mL. The plasma concentration data for each animal were submitted to multi-exponential curve fitting using WinNonlin. The area under the plasma concentration-time curve from 0 to t hours (time of the last measurable plasma concentration) after dosing (AUC0-t) was calculated using the linear trapezoidal rule for the plasma concentration-time profiles. The residual area extrapolated to infinity, determined as the final measured plasma concentration (Ct) divided by the terminal elimination rate constant (β), was added to AUC0-t to produce the total area under the curve (AUC0-∞). Ki values shown in the tables below were determined using Wang's equation (Wang Z X., An Exact Mathematical Expression For Describing Competitive Binding Of Two Different Ligands To A Protein Molecule. FEBS Lett. 1995; 360:111-4)).

SMILES | PK/PD ratio AUC/EC50
CN(C)CC[C@H](CSc1ccccc1)Nc1ccc(S(=O)(=O)NC(=O)c2ccc(N3CCN(Cc4ccccc4-c4ccc(Cl)cc4)CC3)cc2)cc1C(F)(F)F [A, reference compound] | 2.8
CN(C)CC[C@H](CSc1ccccc1)Nc1ccc(S(=O)(=O)NC(=O)c2ccc(N3CCN(Cc4ccccc4-c4ccc(Cl)cc4)CC3)cc2)c(F)c1C(F)(F)F [D, reference compound] | 0.5

same assay, conditions: Table 3

SMILES | PK/PD ratio AUC/EC50
O=C(NS(=O)(=O)c1ccc(N[C@H](CCN2C3CCC2CC3)CSc2ccccc2)c(S(=O)(=O)C(F)(F)F)c1)c1ccc(N2CCN(CC3=C(c4ccc(Cl)cc4)CCCC3)CC2)cc1 [Example 8, 4-(((1R)-3-(7-azabicyclo[2.2.1]hept-7-yl)-1-((phenylsulfanyl)methyl)propyl)amino)-N-(4-(4-((2-(4-chlorophenyl)cyclohex-1-en-1-yl)methyl)piperazin-1-yl)benzoyl)-3-((trifluoromethyl)sulfonyl)benzenesulfonamide] | 51.7
CN(C)CC[C@H](CSc1ccccc1)Nc1ccc(S(=O)(=O)NC(=O)c2ccc(N3CCN(CC4=C(c5ccc(Cl)cc5)CCCC4)CC3)cc2)cc1[N+](=O)[O-] [G, reference compound] | 19.7
O=C(NS(=O)(=O)c1ccc(N[C@H](CCN2C[C@@H]3C[C@H]2CO3)CSc2ccccc2)c(S(=O)(=O)C(F)(F)Cl)c1)c1ccc(N2CCN(CC3=C(c4ccc(Cl)cc4)CCCC3)CC2)cc1 [Example 6, 3-((chloro(difluoro)methyl)sulfonyl)-N-(4-(4-((2-(4-chlorophenyl)cyclohex-1-en-1-yl)methyl)piperazin-1-yl)benzoyl)-4-(((1R)-3-((1S,4S)-2-oxa-5-azabicyclo[2.2.1]hept-5-yl)-1-((phenylsulfanyl)methyl)propyl)amino)benzenesulfonamide] | 91.6
CN(C)CC[C@H](CSc1ccccc1)Nc1ccc(S(=O)(=O)NC(=O)c2ccc(N3CCN(CC4=C(c5ccc(Cl)cc5)CCCC4)CC3)cc2)cc1S(=O)(=O)C(F)(F)F [Example 26, N-(4-(4-((2-(4-chlorophenyl)cyclohex-1-en-1-yl)methyl)piperazin-1-yl)benzoyl)-4-(((1R)-3-(dimethylamino)-1-((phenylsulfanyl)methyl)propyl)amino)-3-((trifluoromethyl)sulfonyl)benzenesulfonamide] | 33.0

same assay, conditions: rat oral AUC / NCI-H146 EC50; Table 1

SMILES | PK/PD ratio AUC/EC50
CC1(C)CCC(c2ccc(Cl)cc2)=C(CN2CCN(c3ccc(C(=O)NS(=O)(=O)c4ccc(N[C@H](CCN5CC6CC5CO6)CSc5ccccc5)c(S(=O)(=O)C(F)(F)F)c4)cc3)CC2)C1 (stereo partly drawn) [Example 10, N-(4-(4-((2-(4-chlorophenyl)-5,5-dimethylcyclohex-1-en-1-yl)methyl)piperazin-1-yl)benzoyl)-4-(((1R)-3-(2-oxa-5-azabicyclo[2.2.1]hept-5-yl)-1-((phenylsulfanyl)methyl)propyl)amino)-3-((trifluoromethyl)sulfonyl)benzenesulfonamide] | 73
O=C(NS(=O)(=O)c1ccc(N[C@H](CCN2C3CCC2CC3)CSc2ccccc2)c(S(=O)(=O)C(F)(F)F)c1)c1ccc(N2CCN(CC3=C(c4ccc(Cl)cc4)CCCC3)CC2)cc1 [Example 8, 4-(((1R)-3-(7-azabicyclo[2.2.1]hept-7-yl)-1-((phenylsulfanyl)methyl)propyl)amino)-N-(4-(4-((2-(4-chlorophenyl)cyclohex-1-en-1-yl)methyl)piperazin-1-yl)benzoyl)-3-((trifluoromethyl)sulfonyl)benzenesulfonamide] | 52
O=C(NS(=O)(=O)c1ccc(N[C@H](CCN2CCCOCC2)CSc2ccccc2)c(S(=O)(=O)C(F)(F)F)c1)c1ccc(N2CCN(CC3=C(c4ccc(Cl)cc4)CCCC3)CC2)cc1 [Example 15, N-(4-(4-((2-(4-chlorophenyl)cyclohex-1-en-1-yl)methyl)piperazin-1-yl)benzoyl)-4-(((1R)-3-(1,4-oxazepan-4-yl)-1-((phenylsulfanyl)methyl)propyl)amino)-3-((trifluoromethyl)sulfonyl)benzenesulfonamide] | 126
CN(C)CC[C@H](CSc1ccccc1)Nc1ccc(S(=O)(=O)NC(=O)c2ccc(N3CCN(CC4=C(c5ccc(Cl)cc5)CC(C)(C)CC4)CC3)cc2)cc1S(=O)(=O)C(F)(F)F [Example 37, N-(4-(4-((2-(4-chlorophenyl)-4,4-dimethylcyclohex-1-en-1-yl)methyl)piperazin-1-yl)benzoyl)-4-(((1R)-3-(dimethylamino)-1-((phenylsulfanyl)methyl)propyl)amino)-3-((trifluoromethyl)sulfonyl)benzenesulfonamide] | 417
O=C(NS(=O)(=O)c1ccc(N[C@H](CCN2CCCC2)CSc2ccccc2)c(S(=O)(=O)C(F)(F)Cl)c1)c1ccc(N2CCN(CC3=C(c4ccc(Cl)cc4)CCCC3)CC2)cc1 [Example 35, 3-((chloro(difluoro)methyl)sulfonyl)-N-(4-(4-((2-(4-chlorophenyl)cyclohex-1-en-1-yl)methyl)piperazin-1-yl)benzoyl)-4-(((1R)-1-((phenylsulfanyl)methyl)-3-(pyrrolidin-1-yl)propyl)amino)benzenesulfonamide] | 166
O=C(NS(=O)(=O)c1ccc(N[C@H](CCN2CC3CC2CO3)CSc2ccccc2)c(S(=O)(=O)C(F)(F)Cl)c1)c1ccc(N2CCN(CC3=C(c4ccc(Cl)cc4)CCCCC3)CC2)cc1 (stereo partly drawn) [Example 13, 3-((chloro(difluoro)methyl)sulfonyl)-N-(4-(4-((2-(4-chlorophenyl)cyclohept-1-en-1-yl)methyl)piperazin-1-yl)benzoyl)-4-(((1R)-3-(2-oxa-5-azabicyclo[2.2.1]hept-5-yl)-1-((phenylsulfanyl)methyl)propyl)amino)benzenesulfonamide] | 108
O=C(NS(=O)(=O)c1ccc(N[C@H](CCN2C[C@@H]3C[C@H]2CO3)CSc2ccccc2)c(S(=O)(=O)C(F)(F)Cl)c1)c1ccc(N2CCN(CC3=C(c4ccc(Cl)cc4)CCCC3)CC2)cc1 [Example 6, 3-((chloro(difluoro)methyl)sulfonyl)-N-(4-(4-((2-(4-chlorophenyl)cyclohex-1-en-1-yl)methyl)piperazin-1-yl)benzoyl)-4-(((1R)-3-((1S,4S)-2-oxa-5-azabicyclo[2.2.1]hept-5-yl)-1-((phenylsulfanyl)methyl)propyl)amino)benzenesulfonamide] | 91
CN(C)CC[C@H](CSc1ccccc1)Nc1ccc(S(=O)(=O)NC(=O)c2ccc(N3CCN(CC4=C(c5ccc(Cl)cc5)CCCC4)CC3)cc2)cc1S(=O)(=O)C(F)(F)F [Example 26, N-(4-(4-((2-(4-chlorophenyl)cyclohex-1-en-1-yl)methyl)piperazin-1-yl)benzoyl)-4-(((1R)-3-(dimethylamino)-1-((phenylsulfanyl)methyl)propyl)amino)-3-((trifluoromethyl)sulfonyl)benzenesulfonamide] | 33
O=C(NS(=O)(=O)c1ccc(N[C@H](CCN2CCCCCC2)CSc2ccccc2)c(S(=O)(=O)C(F)(F)F)c1)c1ccc(N2CCN(CC3=C(c4ccc(Cl)cc4)CCCC3)CC2)cc1 [Example 16, 4-(((1R)-3-(azepan-1-yl)-1-((phenylsulfanyl)methyl)propyl)amino)-N-(4-(4-((2-(4-chlorophenyl)-1-cyclohex-1-en-1-yl)methyl)piperazin-1-yl)benzoyl)-3-((trifluoromethyl)sulfonyl)benzenesulfonamide] | 63
CC1(C)CCC(c2ccc(Cl)cc2)=C(CN2CCN(c3ccc(C(=O)NS(=O)(=O)c4ccc(N[C@H](CCN5CCCC5)CSc5ccccc5)c(S(=O)(=O)C(F)(F)Cl)c4)cc3)CC2)C1 [Example 30, 3-((chloro(difluoro)methyl)sulfonyl)-N-(4-(4-((2-(4-chlorophenyl)-5,5-dimethylcyclohex-1-en-1-yl)methyl)piperazin-1-yl)benzoyl)-4-(((1R)-1-((phenylsulfanyl)methyl)-3-(pyrrolidin-1-yl)propyl)amino)benzenesulfonamide] | 107
CN(C)CC[C@H](CSc1ccccc1)Nc1ccc(S(=O)(=O)NC(=O)c2ccc(N3CCN(CC4=C(c5ccc(Cl)cc5)CCC(C)(C)C4)CC3)cc2)cc1S(=O)(=O)C(F)(F)F [Example 20, N-(4-(4-((2-(4-chlorophenyl)-5,5-dimethyl-1-cyclohex-1-en-1-yl)methyl)piperazin-1-yl)benzoyl)-4-(((1R)-3-(dimethylamino)-1-((phenylsulfanyl)methyl)propyl)amino)-3-((trifluoromethyl)sulfonyl)benzenesulfonamide] | 112
CC1(C)CCC(CN2CCN(c3ccc(C(=O)NS(=O)(=O)c4ccc(N[C@H](CCN5C[C@@H]6C[C@H]5CO6)CSc5ccccc5)c(S(=O)(=O)C(F)(F)F)c4)cc3)CC2)=C(c2ccc(Cl)cc2)C1 [Example 36, N-(4-(4-((2-(4-chlorophenyl)-4,4-dimethylcyclohex-1-en-1-yl)methyl)piperazin-1-yl)benzoyl)-4-(((1R)-3-((1S,4S)-2-oxa-5-azabicyclo[2.2.1]hept-5-yl)-1-((phenylsulfanyl)methyl)propyl)amino)-3-((trifluoromethyl)sulfonyl)benzenesulfonamide] | 174
CC1(C)CCC(CN2CCN(c3ccc(C(=O)NS(=O)(=O)c4ccc(N[C@H](CCN5CCOCC5)CSc5ccccc5)c(S(=O)(=O)C(F)(F)Cl)c4)cc3)CC2)=C(c2ccc(Cl)cc2)C1 [Example 2, 3-((chloro(difluoro)methyl)sulfonyl)-N-(4-(4-((2-(4-chlorophenyl)-4,4-dimethylcyclohex-1-en-1-yl)methyl)piperazin-1-yl)benzoyl)-4-(((1R)-3-(morpholin-4-yl)-1-((phenylsulfanyl)methyl)propyl)amino)benzenesulfonamide] | 241
